Assay results published in PubChem BioAssay AID1347075 (National Center for Advancing Translational Sciences (NCATS), 2019).
In all, about 400,000 compounds went through this assay and about 5,500 (1.4%) were called active. Inconclusive means that the source gave no clear call. Such entries were picked first, then a sample of the others. The call rests on the fitted dose curve; in most records, active means well fitted cell-killing curve with a large enough effect; inconclusive means small, poorly fitted or top-dose-only effect, or effect the other way; inactive means flat fitted curve, though single readings scatter. Where the call is inconclusive, the potency comes from a doubtful curve fit.

assay: qHTS assay for MDR1-selective chemotherapeutics: Primary screen using the parental adenocarcinoma cell KB-3-1; details: KB-3-1 viability, CellTiter-Glo ATP luminescence, 72 h; activity change, negative = cytotoxic: at 46.1 µM (top of the series); further: nearly all actives have a fitted effect of over 60% in size
Outline: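 Screening of KB-3-1 cells (DMEM, 10% FBS, phenol-red free) ran from lowest to highest compound concentration; after 72 h at 37 °C viability was read luminescently and curves fitted.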
On the % scale 0 is the no-effect control and ±100 the full control effect; potency means the concentration at half of the fitted maximal effect.

For `CCn1c(COc2ccc(Cl)cc2)nnc1SCc1nc2ccccc2[nH]1`, which Potency is on record?
Its Potency is inconclusive: 20.6 µM [cytotoxic, single point].

With `Brc1ccc2nc(-c3c[nH]c4ccccc34)cn2c1` as the molecule, how does the Potency read?
Its Potency is “inactive”.

Which Potency does the source give for `O=[N+]([O-])c1c(C(Cl)Cl)nn(-c2ccc(Cl)cc2)c1N1CCCCC1` here?
The Potency was “inactive”.

With `CCOC(=O)/C=c1/s/c(=C/c2ccc3cc(OC)ccc3c2)c(=O)n1CC(=O)NCC1CCCO1` (centres undefined) as the molecule, how does the activity change, negative = cytotoxic read?
Its activity change, negative = cytotoxic is inconclusive: 2.58%.

Which Potency does the source give for `O=C(N/N=C\c1cc(Br)ccc1O)c1ccc(S(=O)(=O)N2CCCCC2)cc1` here?
The Potency was “inactive”.

For `CCc1ccccc1NC(=O)C(=O)NCCCN1CCOCC1`, which Potency is on record?
Its Potency is “inactive”.

With `CCOC(=O)c1ccc(NC(=O)N2CCc3ccccc32)cc1` as the molecule, how does the Potency read?
Its Potency is inconclusive: 7.31 µM [cytotoxic, partial curve].

With `CCCOP(=O)(OCCC)C(Nc1ccc(C(=O)O)cc1)c1ccccc1` (centres undefined) as the molecule, how does the Potency read?
Its Potency is inconclusive: 29.1 µM [cytotoxic, partial curve, poor fit].

For `CN(C)S(=O)(=O)c1cccc(COc2cccnc2[N+](=O)[O-])c1`, which Potency is on record?
Its Potency is inconclusive: 11.6 µM [cytotoxic, partial curve, poor fit].

With `O=C(N/N=C/c1ccccc1)c1ccc(NC(=O)c2ccc(F)cc2)cc1` as the molecule, how does the Potency read?
The Potency was “inactive”.

With `CCc1ccc(NC(=O)C2CCN(S(=O)(=O)c3ccc4c(c3)N(C(C)=O)CCO4)CC2)cc1` as the molecule, how does the Potency read?
The Potency was “inactive”.

Which Potency does the source give for `COc1ccc(-c2cc(=O)oc3cc(OC(C)C(=O)NC4CC4)ccc23)cc1` (centres undefined) here?
The Potency was inconclusive: 2.91 µM [cytotoxic, partial curve, poor fit].

With `CCc1cc2c3c(c(=O)oc2cc1OCC(=O)OC)CCCC3` as the molecule, how does the Potency read?
The Potency was “inactive”.

Which Potency does the source give for `COc1ccc(NC(=O)CCCC2CCCCC2)cc1S(=O)(=O)N1CCCCC1` here?
Its Potency is inconclusive: 18.4 µM [cytotoxic, partial curve].

Which Potency does the source give for `CC(C)CN(C(=O)Cn1c(=O)cnc2ccccc21)C1CCS(=O)(=O)C1` (centres undefined) here?
Its Potency is inconclusive: 29.1 µM [rising, single point].

With `COc1ccccc1NC(=S)NC(=O)c1ccc(-c2ccc(Cl)cc2)o1` as the molecule, how does the Potency read?
The Potency was “inactive”.

Which Potency does the source give for `Cc1ccsc1CN1CCc2nc(Nc3ccccc3)ncc2C1` here?
The Potency was inconclusive: 29.1 µM [cytotoxic, single point].

With `CCCCC(=O)OC1=C(C(=O)c2ccccc2)N(CCC)S(=O)(=O)c2ccccc21` as the molecule, how does the Potency read?
Its Potency is inconclusive: 29.1 µM [cytotoxic, single point].

For `COc1cc2c(cc1OC)C(c1cccs1)N(C(=O)c1ccncc1)CC2` (centres undefined), which Potency is on record?
Its Potency is inconclusive: 23.1 µM [cytotoxic, single point].

For `NC1=NC[C@H](Cc2ccc(O)cc2)N1CCc1cccc2ccccc12`, which Potency is on record?
Its Potency is inconclusive: 23.1 µM [cytotoxic, single point].

With `Cc1cccc(NS(=O)(=O)c2c(C)nc3sccn3c2=O)c1C` as the molecule, how does the Potency read?
Its Potency is “inactive”.

For `CC(C)(C)C1CCC(CN2CCC(CN3C(=O)C(=O)NC[C@@H]3Cc3ccccc3)CC2)CC1` (some centres undefined), which Potency is on record?
Its Potency is “inactive”.

With `COc1ccccc1N(CC(=O)NCc1ccccc1C)S(=O)(=O)c1ccc(C)cc1` as the molecule, how does the Potency read?
Its Potency is inconclusive: 29.1 µM [rising, single point].

Which Potency does the source give for `O=C(CN1CCN(c2ccc(O)cc2)CC1)Nc1ccc2c(c1)OCCCO2` here?
The Potency was inconclusive: 10.3 µM [cytotoxic, partial curve, poor fit].

Which Potency does the source give for `CCCCCCn1c(NCC)nc2c1c(=O)n(C)c(=O)n2C` here?
Its Potency is inconclusive: 7.31 µM [cytotoxic, partial curve].

For `CCOc1ccc(N2CC(C(=O)NCc3ccco3)CC2=O)cc1` (centres undefined), which Potency is on record?
Its Potency is inconclusive: 29.1 µM [rising, single point].

Which Potency does the source give for `O=C1[C@H](Cc2ccccc2)NCCCC[C@H](c2ccc(Cl)cc2)N1Cc1ccccc1` here?
The Potency was inconclusive: 29.1 µM [cytotoxic, single point].

For `CN(C)CCNC(=O)c1ccc(Cl)c2cc3ccccc3nc12`, which Potency is on record?
Its Potency is inconclusive: 4.61 µM [cytotoxic, full curve, poor fit].

For `CCC(C)NC(=O)C1CCC(CNS(=O)(=O)c2ccc3c(c2)N(C(C)=O)CCO3)CC1` (centres undefined), which Potency is on record?
Its Potency is “inactive”.

With `COc1ccc2c(c1)OC[C@H]1[C@H]2N2C(=O)CN(Cc3ccc(F)cc3)C(=O)[C@@]2(C)[C@H]1c1ccccc1` as the molecule, how does the Potency read?
Its Potency is inconclusive: 29.1 µM [cytotoxic, single point].

Which Potency does the source give for `COc1cccc(-n2c(=O)c3c(C)c(C)sc3n(CC(=O)NCc3ccc(C)cc3)c2=O)c1` here?
The Potency was “inactive”.

For `Cc1cc(NC(=O)CSc2nc(-c3ccco3)cc(C(F)(F)F)n2)n(-c2ccccc2)n1`, which Potency is on record?
The Potency was active: 5.8 µM.

With `C=C(C(=O)c1ccccc1)C(c1ccccc1)C(C)C(=O)c1ccccc1` (centres undefined) as the molecule, how does the Potency read?
The Potency was inconclusive: 20.6 µM [cytotoxic, single point].

For `CCCCCCCNC(=O)C1(CC2CC(c3cccc(Br)c3)=NO2)CCN(C(=O)C2(C)CC2)CC1` (centres undefined), which Potency is on record?
The Potency was inconclusive: 29.1 µM [cytotoxic, single point].

Which Potency does the source give for `COc1ccc(S(=O)(=O)N2CCC(C(=O)NC3CC3)CC2)cc1` here?
The Potency was “inactive”.

For `COc1ccc(O)c(C(=O)CC(=O)c2ccccc2C)c1`, which Potency is on record?
The Potency was inconclusive: 18.4 µM [cytotoxic, single point].

Which Potency does the source give for `Cc1ccc2c(CN3CCN(S(=O)(=O)c4ccccc4C(F)(F)F)CC3)cc(=O)oc2c1C` here?
The Potency was inconclusive: 29.1 µM [cytotoxic, single point].

With `CCOc1ccc2nc(NC(NC(=O)CC)(C(=O)OC)C(F)(F)F)sc2c1` (centres undefined) as the molecule, how does the Potency read?
The Potency was inconclusive: 20.6 µM [cytotoxic, single point].

Which Potency does the source give for `CCOC(=O)c1ccc2c(c1)N(CC(=O)N(C)c1ccccc1)C(=O)c1ccccc1S2` here?
Its Potency is “inactive”.

For `COc1ccccc1NC(=O)c1cc(=O)c2ccc(C)c(C)c2o1`, which Potency is on record?
The Potency was “inactive”.

Which Potency does the source give for `COc1ccccc1Cc1c(-c2ccc(Cl)cc2)nc2ccc(Cl)cn12` here?
Its Potency is inconclusive: 25.9 µM [cytotoxic, single point].

For `CCOC(=O)c1ccc(N2C(=O)C=CC2=O)cc1`, which Potency is on record?
Its Potency is “inactive”.

With `Cc1ccc(C)c(OCCNc2ccc([N+](=O)[O-])cn2)c1` as the molecule, how does the activity change, negative = cytotoxic read?
The activity change, negative = cytotoxic was inconclusive: 4.12%.

Which Potency does the source give for `O=[N+]([O-])c1ccc(C(=Nc2cccc3ccccc23)N2CCOCC2)cc1` here?
The Potency was inconclusive: 23.1 µM [cytotoxic, partial curve, poor fit].
